Laboratory results as given in paper PMC10945694.

The chains behind the UniProt entries cited, without tags or fusion partners.
UniProt Q6PDM2: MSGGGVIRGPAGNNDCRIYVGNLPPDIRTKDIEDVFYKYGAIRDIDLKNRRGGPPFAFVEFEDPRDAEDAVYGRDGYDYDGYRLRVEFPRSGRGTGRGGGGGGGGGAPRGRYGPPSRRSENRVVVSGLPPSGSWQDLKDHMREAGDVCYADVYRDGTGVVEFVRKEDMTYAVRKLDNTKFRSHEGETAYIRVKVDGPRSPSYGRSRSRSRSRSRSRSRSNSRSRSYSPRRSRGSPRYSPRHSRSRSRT
UniProt Q8BTI8: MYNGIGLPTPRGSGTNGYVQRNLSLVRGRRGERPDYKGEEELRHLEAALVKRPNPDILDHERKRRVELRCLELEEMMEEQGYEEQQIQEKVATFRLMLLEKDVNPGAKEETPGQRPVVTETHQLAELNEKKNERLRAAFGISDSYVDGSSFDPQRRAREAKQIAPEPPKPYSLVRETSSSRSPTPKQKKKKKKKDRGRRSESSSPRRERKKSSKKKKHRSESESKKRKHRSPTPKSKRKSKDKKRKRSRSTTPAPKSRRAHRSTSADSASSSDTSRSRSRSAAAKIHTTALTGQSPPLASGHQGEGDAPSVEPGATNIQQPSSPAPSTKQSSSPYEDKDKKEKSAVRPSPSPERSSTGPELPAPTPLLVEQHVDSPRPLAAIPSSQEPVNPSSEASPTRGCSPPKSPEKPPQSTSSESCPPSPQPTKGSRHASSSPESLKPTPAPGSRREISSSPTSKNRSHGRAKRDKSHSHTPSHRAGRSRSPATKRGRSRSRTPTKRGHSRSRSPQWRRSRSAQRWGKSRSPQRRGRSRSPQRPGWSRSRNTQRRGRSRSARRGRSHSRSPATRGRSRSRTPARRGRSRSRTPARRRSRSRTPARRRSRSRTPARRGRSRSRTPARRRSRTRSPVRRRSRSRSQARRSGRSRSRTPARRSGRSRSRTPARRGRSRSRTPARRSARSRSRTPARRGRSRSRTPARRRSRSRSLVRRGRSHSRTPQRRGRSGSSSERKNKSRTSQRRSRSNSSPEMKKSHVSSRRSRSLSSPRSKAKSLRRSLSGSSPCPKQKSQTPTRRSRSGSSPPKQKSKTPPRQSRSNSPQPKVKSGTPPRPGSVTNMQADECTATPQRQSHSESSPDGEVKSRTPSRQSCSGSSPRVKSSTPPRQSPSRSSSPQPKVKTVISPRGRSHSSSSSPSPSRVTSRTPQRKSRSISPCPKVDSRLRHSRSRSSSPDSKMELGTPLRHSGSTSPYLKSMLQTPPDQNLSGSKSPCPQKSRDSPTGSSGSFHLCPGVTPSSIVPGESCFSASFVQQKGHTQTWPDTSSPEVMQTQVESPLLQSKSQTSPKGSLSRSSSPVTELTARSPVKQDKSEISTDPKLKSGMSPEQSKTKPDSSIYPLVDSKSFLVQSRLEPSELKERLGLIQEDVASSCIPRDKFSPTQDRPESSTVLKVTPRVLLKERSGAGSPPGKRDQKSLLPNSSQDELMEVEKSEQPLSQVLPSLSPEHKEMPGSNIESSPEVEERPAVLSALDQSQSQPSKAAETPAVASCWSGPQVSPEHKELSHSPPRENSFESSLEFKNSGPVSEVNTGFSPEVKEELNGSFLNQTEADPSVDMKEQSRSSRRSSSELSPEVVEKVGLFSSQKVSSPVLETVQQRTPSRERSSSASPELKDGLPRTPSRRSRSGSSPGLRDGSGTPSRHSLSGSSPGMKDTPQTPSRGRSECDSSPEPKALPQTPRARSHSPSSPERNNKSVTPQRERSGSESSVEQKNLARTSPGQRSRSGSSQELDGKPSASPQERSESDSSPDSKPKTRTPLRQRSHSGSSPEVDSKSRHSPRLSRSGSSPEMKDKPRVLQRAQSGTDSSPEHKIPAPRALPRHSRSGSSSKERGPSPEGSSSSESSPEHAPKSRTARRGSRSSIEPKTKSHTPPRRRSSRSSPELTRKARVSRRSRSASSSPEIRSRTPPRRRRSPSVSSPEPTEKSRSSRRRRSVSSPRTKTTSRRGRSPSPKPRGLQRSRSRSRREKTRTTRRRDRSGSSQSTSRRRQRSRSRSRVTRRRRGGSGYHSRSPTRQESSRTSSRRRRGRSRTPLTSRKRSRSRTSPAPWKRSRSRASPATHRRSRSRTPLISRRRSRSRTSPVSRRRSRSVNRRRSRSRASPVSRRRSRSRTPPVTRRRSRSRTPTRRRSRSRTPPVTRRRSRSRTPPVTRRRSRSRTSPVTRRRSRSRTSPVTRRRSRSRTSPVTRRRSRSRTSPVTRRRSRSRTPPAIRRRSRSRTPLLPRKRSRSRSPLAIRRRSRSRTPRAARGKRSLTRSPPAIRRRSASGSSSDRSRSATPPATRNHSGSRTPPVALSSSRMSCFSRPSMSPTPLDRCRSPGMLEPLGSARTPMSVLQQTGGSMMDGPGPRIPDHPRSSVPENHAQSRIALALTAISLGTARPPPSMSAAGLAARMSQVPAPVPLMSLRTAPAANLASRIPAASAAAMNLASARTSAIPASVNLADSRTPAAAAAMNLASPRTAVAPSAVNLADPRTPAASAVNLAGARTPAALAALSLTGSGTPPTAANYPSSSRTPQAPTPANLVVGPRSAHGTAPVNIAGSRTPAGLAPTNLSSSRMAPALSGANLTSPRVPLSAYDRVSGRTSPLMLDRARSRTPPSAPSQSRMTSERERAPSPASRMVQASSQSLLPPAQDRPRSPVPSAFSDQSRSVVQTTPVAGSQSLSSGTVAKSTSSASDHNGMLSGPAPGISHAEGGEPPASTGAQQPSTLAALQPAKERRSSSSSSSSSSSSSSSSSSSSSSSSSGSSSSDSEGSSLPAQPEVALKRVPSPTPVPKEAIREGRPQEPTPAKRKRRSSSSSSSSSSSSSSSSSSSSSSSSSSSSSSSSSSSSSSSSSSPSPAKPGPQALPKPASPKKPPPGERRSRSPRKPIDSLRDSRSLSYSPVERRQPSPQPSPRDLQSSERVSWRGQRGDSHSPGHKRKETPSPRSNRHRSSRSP
UniProt Q9R0U0: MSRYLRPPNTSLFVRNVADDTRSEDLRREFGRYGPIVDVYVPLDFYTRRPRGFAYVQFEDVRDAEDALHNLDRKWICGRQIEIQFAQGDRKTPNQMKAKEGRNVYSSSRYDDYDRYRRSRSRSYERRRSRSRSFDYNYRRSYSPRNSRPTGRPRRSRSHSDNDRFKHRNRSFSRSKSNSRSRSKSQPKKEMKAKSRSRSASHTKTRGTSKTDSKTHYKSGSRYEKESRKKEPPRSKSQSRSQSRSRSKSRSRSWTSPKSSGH

biological target: Serine/arginine-rich splicing factor 1 (SRSF1), endogenous in mouse testis (mouse (endogenous in 5 dpp mouse testis)) (UniProt Q6PDM2); experiment: affinity purification with mass spectrometry; IP with SRSF1 antibody (sc-33652) and normal mouse IgG as control from 5 dpp mouse testis extracts, protein A agarose, 4°C; Q-Exactive mass spectrometry, Mascot search against the mouse database

Molecule	binding
SRRM2, endogenous in mouse testis (from UniProt Q8BTI8 1-2703)	binds
SRSF10, endogenous in mouse testis (from UniProt Q9R0U0 1-262)	binds
SART1, endogenous in mouse testis (protein, UniProt Q9Z315 1-806) MGSSKKHRGEKEAAGTTAAAGTGGTTEQPPRHREHKKHKHRSSGGGSSGGERRKRSRERGSERGSGRRGAEAEARSGAHGRERSQAEPSERRVKREKRDDGYEAAASSKASSGDASSLSIEETNKLRAKLGLKPLEVNAVKKEAGTKEEPVAADVINPMALRQREELREKLAAAKEKRLLNQKLGKIKTLGEDDPWLDDTAAWIERSRQLQKEKDLAEKRAKLLEEMDQEFGVSTLVEEEFEQRRQDLYSARDLQGLTVEHAIDSFREGETVVLTLKDKGVLQDGEDVLVNVNMVDKERADKNVELRKKKPDYLPYAEDESVDDLAQQKPRSILAKYDEELEGERPHSFRLEQGGMADGLRERELEEIRTKLRLQAQSLSSVGPRLASEYLSPEEMVTFKKTKRRVKKIRKKEKEVIMRADDLLPLGDQTQDGDFGSRLRGRGRRRVPEVEEEALEDEEKDPVAQPPPSDDTRVENMDISDEEDGGALPPGSPEGLEEDEAELELQKQLEKGRRLRQLQQLQQLRDSGEKVLEIVKKLESRQRGWEEEEDPERKGTIVFNATSEFCRTLGEIPTYGLAGNREEQEELMDFERDEERSANGGSESDGEENIGWSTVNLDEEKQHQDFSASSTTILDEEPIVNRGLAAALLLCQNKGLLETTVQKVARVKAPNKSLPSAVYCIEDKMAIDDKYSRREEYRGFTQDFKEKDGYKPDVKIEYVDETGRKLTPKEAFRQLSHRFHGKGSGKMKTERRMKKLDEEALLKKMSSSDTPLGTVALLQEKQKAQKTPYIVLSGSGKSMNANTITK	binds
RBM15, endogenous in mouse testis (protein, UniProt Q0VBL3 1-962) MRSAGREPLPRRSPRWRRASPLCETSAGWRVSQLRRDDLRRPSTMKGKERSPVKPKRSRGGEDSSSRGERSKKLGGSGGSNGSSSGKTDSGGSRRSLHLDKSSSRGGSREYETGGGSSSSRLHSYSSPSTKNSSGGGESRSSSRGGGGESRSSGAASSAPGGGDGVEYKTLKISELGSQLSDEAVEDGLFHEFKRFGDVSVKISHLSGSGSGDERVAFVNFRRPEDARAAKHARGRLVLYDRPLKIEAVYVSRRRSRSPLDKDAYAPSSSVVGTSVGSHRHAPGGGGGQRSLSPGGAALGYRDYRLQQLALGRLPPPPPPPLPRELERERDYPFYDRVRPAYSLEPRVGAGAGAAPFREVDEISPEDDQRANRTLFLGNLDITVTENDLRRAFDRFGVITEVDIKRPSRGQTSTYGFLKFENLDMSHRAKLAMSGKIIIRNPIKIGYGKATPTTRLWVGGLGPWVPLAALAREFDRFGTIRTIDYRKGDSWAYIQYESLDAAHAAWTHMRGFPLGGPDRRLRVDFADTEHRYQQQYLQPLPLTHYELVTDTFGHRAPDPLRSARDRTPPLLYRDRDRDLYTDSDWVPPPPPVRERSARAATSAVTAYEPLDSLDRRRDGWSLDRDRGDRDLPSSRDQPRKRRLPEESGGRHLDRSPESERPRKQRHCTPSPDRSPELSSNRDRYNSDNDRSSRLLLLERSSPVRDRRGSLEKSQSDKRDRKNSASAERDRKHRTAAPTEGKNPLKKEDRSDGNAPSASTSSSKQKPPSQKQDGGTAPVAASSPKLCLAWQGMLLLKNSNFPSNMHLLQGDLQVASSLLVEGSTGGKVAQLKITQRLRLDQPKLDEVTRRIKVAGPNGYAILLAVPGSSDSRSSSSSATSDTAASTQRPLRNLVSYLKQKQAAGVISLPVGGNKDKENTGVLHAFPPCEFSQQFLDSPAKALAKSEEDYLVMIIVRAKLVNSG	binds
SF3A2, endogenous in mouse testis (protein, UniProt Q62203 1-475) MDFQHRPGGKTGSGGVASSSESNRDRRERLRQLALETIDINKDPYFMKNHLGSYECKLCLTLHNNEGSYLAHTQGKKHQTNLARRAAKEAKEAPAQPAPEQVKVEVKKFVKIGRPGYKVTKQRDTEMGQQSLLFQIDYPEIAEGIMPRHRFMSAYEQRIEPPDRRWQYLLMAAEPYETIAFKVPSREIDKAEGKFFFLQFHFKMEKPPAPPSLPAGPPGVKRPPPPLMNGLPPRPPLPDALPPPPPGGLPLPPMPPTGPAPSGPPGPPQMPPPAPGVHPPAPVVHPPTSGVHPPAPGVHPPAPVVHPPTSGVHPPAPGVHPPTPGVHPPAPGVHPPAPGVHPPAPGVHPPTPGVHPPAPGVHPPAPGVHPPAPGVHPPPSAGVHPQAPGVHPPAPAVHPQAPGVHPPAPGIHPQAPGVHPQPPPGVHPAAPGVHPQPPGVHPSNPGVHPAPMPPMLRPPLPSDGPGNMPPPPPGN	binds

Results are given in words; binding and its absence hold for the method and conditions named. In cells and extracts the contact can be indirect. These calls come from enrichment with a bait or labelling near it, and not all partners need be listed.
